Results taken from PubChem BioAssay (NCATS).
Where “and” joins values, the source holds several entries; their conditions need not be identical. Equal entries are not always repeated. Inconclusive means that the source gave no clear call. Such entries were picked first, then a sample of the others. For some assays here: A potency beside an inconclusive call is a rough fit, not a confirmed value. Calls of active or inactive are those of the source. Calls come from the whole dose curve; as a rule, active = well fitted curve in the direction sought with a large enough effect; inconclusive = small, poorly fitted or top-dose-only effect, or another doubt; inactive = no such curve, though single readings can be large; an effect the other way counts as inactive or inconclusive.

Experiments:
[1] = Cell Proliferation Assay against the TMD8 Cell Line (Caspase readout at 16 hrs) (AID 651712); conditions: TMD8 lymphoma cells, caspase activation luminescence; caspase activation: at 46.1 µM (top of the series); note: potency is the fitted concentration of half-maximal effect
Method in brief: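 16 h, 37 °C, TMD8 (500 cells/well), RPMI/5% FBS no phenol red; Caspase-Glo 3/7, 15 min RT, luminescence; %act: DMSO 0, bortezomib 9.2 uM final 100.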

[2] = Identifying Small Molecule Inhibitors of Pancreatic Cancer Stem Cells (A2780, Spheroid) (AID 1259357); conditions: Potency: A2780 spheroid viability; viability (percent of control): at 46.1 µM (top of the series); note: potency is the fitted concentration of half-maximal effect;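 note: spheroids pre-formed over 14 days in stem cell medium on hydrogel; compound exposure lasted 48 h before the ATP luminescence read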;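 for viability (percent of control): 100% = DMSO treated cells and 0% = wells without cells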
Method in brief: (§1)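 Viability is scored by CellTiter-Glo luminescence 48 h after dosing, expressed as percent activity against vehicle and no-cell references. Spheroid formats rely on cells cultured 14 days in stem cell media beforehand.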

[3] = Identifying Small Molecule Inhibitors of Pancreatic Cancer Stem Cells (Panc1, Spheroid) (AID 1259359); conditions: Panc1 spheroid cancer stem cell viability; viability, % of control: at 46.1 µM (top of the series) unless noted;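 note: potency is the fitted concentration of half-maximal effect; compound exposure lasted 48 h before reading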
Method in brief: (§2)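 Adherent (2D) versus sphere (3D) formats; spheres generated 14 d in SCM beforehand. Compound transferred by pin tool after 4 h, 48 h incubation, CellTiter-Glo endpoint.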

[4] = Identifying Small Molecule Inhibitors of Pancreatic Cancer Stem Cells (SN12C, Spheroid) (AID 1259360); conditions: Potency: SN12C spheroid viability; note: potency is the fitted concentration of half-maximal effect
Method in brief: as §1

[5] = Identifying Small Molecule Inhibitors of Pancreatic Cancer Stem Cells (A278, Adherent) (AID 1259361); note: nearly all actives have a fitted effect of over 35% in size
Method in brief: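 After a 4 h attachment period, compounds were pinned into wells and cultures held 48 h under standard incubator conditions. Viability was then measured as CellTiter-Glo luminescence following 10 min at room temperature.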

[6] = P-glycoprotein substrates identified in KB-8-5-11 adenocarcinoma cell line, qHTS therapeutic library screen (AID 1346987); note: potency is the fitted concentration of half-maximal effect; nearly all actives have a fitted effect of over 65% in size
Method in brief: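 In this qHTS, P-gp-rich KB-8-5-11 cells received library compounds across a concentration range. Viability was quantified by luminescence after 72 h at 37 degree C.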

[7] = qHTS of pediatric cancer cell lines to identify multiple opportunities for drug repurposing: Primary screen for BT-12 cells (AID 1347101); note: potency is the fitted concentration of half-maximal effect; nearly all actives have a fitted effect of over 25% in size
Method in brief: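 Cells (500-1,000/well) rested 5 h, then received compounds for 48 h; metabolically active cells were measured by CellTiter-Glo luminescence. Final concentrations spanned up to 46 µM (MIPE, 11-point) or 0.59 nM-46 µM (NPC, 8-point) in primary screens, 11-point in follow-ups.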

[8] = qHTS of pediatric cancer cell lines to identify multiple opportunities for drug repurposing: Primary screen for Rh18 cells (AID 1347102); note: potency is the fitted concentration of half-maximal effect; nearly all actives have a fitted effect of over 65% in size
Method in brief: (§3)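 Cells (500-1,000/well) in growth media were settled 5 h at 37 degrees C, then given compounds for 48 h. Viability was read as CellTiter-Glo luminescence. Primary runs used MIPE at 11 points (0.78 nM-46 µM) and NPC at 8 points (0.59 nM-46 µM); follow-ups used 11 points.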

[9] = qHTS of pediatric cancer cell lines to identify multiple opportunities for drug repurposing: Primary screen for Rh41 cells (AID 1347108); note: potency is the fitted concentration of half-maximal effect; nearly all actives have a fitted effect of over 70% in size
Method in brief: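 500-1,000 cells/well; 5 h pre-incubation 37 °C/5% CO2; compound pinned; 48 h; CellTiter-Glo, 15 min RT; luminescence. MIPE 11-pt from 0.78 nM, NPC 8-pt from 0.59 nM final. Bortezomib 2.3 µM final as positive control.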

[10] = Quantitative High-Throughput drug screen in 47 multiple myeloma cell lines against the NCATS MIPE library collection: JIM1_ECACC cell viability assay (AID 1918964; note: potency is the fitted concentration of half-maximal effect)
Method in brief: (§4)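 CellTiter-Glo luminescence (ATP) after 48 h compound exposure, 37C/5% CO2; 500 cells/well; MIPE 4.0 approved/investigational drugs pinned in; DMSO = 100%, media only = 0% viability.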

[11] = Quantitative High-Throughput drug screen in 47 multiple myeloma cell lines against the NCATS MIPE library collection: KMS20_JCRB cell viability assay (AID 1918973); conditions: CellTiter-Glo ATP, 48 h; viability (% of DMSO): at 45.8 µM (top of the series); note: potency is the fitted concentration of half-maximal effect; nearly all actives have a fitted effect of over 45% in size
Method in brief: as §4

[12] = Quantitative High-Throughput drug screen in 47 multiple myeloma cell lines against the NCATS MIPE library collection: KMS21BM_JCRB cell viability assay (AID 1918974); conditions: ATP luminescence, 48 h; viability: at 45.8 µM (top of the series); note: potency is the fitted concentration of half-maximal effect
Method in brief: as §4

[13] = Quantitative High-Throughput drug screen in 47 multiple myeloma cell lines against the NCATS MIPE library collection: MOLP8_DSMZ cell viability assay (AID 1918977); conditions: MOLP8 myeloma viability, CellTiter-Glo ATP luminescence, 48 h; viability (% of control): at 45.8 µM (top of the series); note: potency is the fitted concentration of half-maximal effect; nearly all actives have a fitted effect of over 45% in size
Method in brief: (§5)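 Readout: median RLU from CellTiter-Glo after 5 min at room temperature. Preceding step was 48 h drug treatment of 500 cells/well at 37 °C, 5% CO2, with DMSO-only and media-only control wells.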

CRL-7250 = normal cell line; assay: Cytotoxic Profiling of Annotated Libraries Using Quantitative High-Throughput Screening (AID 1296008); conditions: Five cell lines viability, CellTiter-Glo ATP luminescence, 48-72 h; max response: stronger effect = lower value; note: potency is the fitted concentration of half-maximal effect; nearly all actives have a fitted effect of over 60% in size
Method in brief: (§6)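 Compounds were pin-transferred onto cells and incubated 48 or 72 hr at 37 degree Celsius, 95% humidity. CellTiter-Glo was added, plates sat 10 min at room temperature, then ATP-coupled luminescence was imaged as the viability read-out.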

[14] = Identifying Small Molecule Inhibitors of Pancreatic Cancer Stem Cells (Panc1, Adherent) (AID 1259362); conditions: Potency: viability unless noted; viability, % of control: at 46.1 µM (top of the series) unless noted; note: potency is the fitted concentration of half-maximal effect
Method in brief: as §2

[15] = qHTS of pediatric cancer cell lines to identify multiple opportunities for drug repurposing: Primary screen for Rh30 cells (AID 1347107); note: potency is the fitted concentration of half-maximal effect; nearly all actives have a fitted effect of over 75% in size
Method in brief: as §3

[16] = Quantitative High-Throughput drug screen in 47 multiple myeloma cell lines against the NCATS MIPE library collection: LP1_DSMZ cell viability assay (AID 1918982); note: potency is the fitted concentration of half-maximal effect; nearly all actives have a fitted effect of over 35% in size
Method in brief: as §5

[17] = Quantitative High-Throughput drug screen in 47 multiple myeloma cell lines against the NCATS MIPE library collection: L363_DSMZ cell viability assay (AID 1918984); conditions: L363 myeloma viability, CellTiter-Glo ATP luminescence, 48 h; viability (% of control): at 45.8 µM (top of the series); note: potency is the fitted concentration of half-maximal effect; nearly all actives have a fitted effect of over 40% in size
Method in brief: as §5

HEK293 = assay: Cytotoxic Profiling of Annotated Libraries Using Quantitative High-Throughput Screening (AID 1296008); conditions: Five cell lines viability, CellTiter-Glo ATP luminescence, 48-72 h; max response: stronger effect = lower value; note: potency is the fitted concentration of half-maximal effect; nearly all actives have a fitted effect of over 60% in size
Method in brief: as §6

[18] = Cell Proliferation Assay against the TMD8 Cell Line (Caspase readout at 8 hrs) (AID 651713); conditions: TMD8 lymphoma cells, caspase activation luminescence; caspase activation: at 46.1 µM (top of the series);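 note: 0% = DMSO and 100% = 9.2 µM bortezomib caspase signal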
Method in brief: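 Apoptosis readout: caspase 3/7 luminescence (Caspase-Glo), 15 min RT. Cells: TMD8, 500/well, RPMI + 5% FBS, no phenol red. Exposure 8 h, 37C. % activity vs DMSO = 0, bortezomib 9.2 uM final = 100.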

Cc1cc(Nc2cc(NC(=O)c3c(Cl)cccc3Cl)ccn2)nc(N)n1
Potency [1]: active: 18.7 µM
Potency [2]: active: 20.9 µM
Potency [3]: inconclusive: 37.2 µM [cytotoxic, single point]
Potency [4]: inconclusive: 26.4 µM [cytotoxic, single point]
IC50 (viability decrease) [5]: inconclusive: 16.6 µM [cytotoxic, partial curve, poor fit]
Potency [6]: active: 935 nM and active: 1.16 µM
Potency [7]: active: 0.544 µM
Potency [8]: inconclusive: 37.2 µM [cytotoxic, single point]
Potency [9]: inconclusive: 3.72 µM [cytotoxic, full curve]
Potency [10]: inconclusive: 11.8 µM [cytotoxic, partial curve, poor fit]
Potency [11]: active: 10.5 µM
Potency [12]: active: 0.418 µM
Potency [13]: active: 23.5 µM
Potency (CRL-7250): inconclusive: 33.2 µM [inhibitor, single point]

CC(=O)NC(C)c1ccc(Oc2ccc(OC(C)C)cc2)cc1 (configuration not stated)
Potency [2]: inconclusive: 37.2 µM [cytotoxic, partial curve, poor fit]
Potency [3]: inconclusive: 0.0019 µM [rising, full curve, poor fit]
IC50 (viability decrease) [5]: inconclusive: 18.7 µM [cytotoxic, partial curve]
Potency [14]: active: 4.69 µM
Potency [8]: inconclusive: 16.6 µM [cytotoxic, partial curve]
Potency [15]: inconclusive: 6.62 µM [cytotoxic, partial curve]
Potency [9]: inconclusive: 11.8 µM [cytotoxic, partial curve]
Potency [10]: inactive
Potency [11]: inconclusive: 0.0935 µM [rising, full curve, poor fit]
Potency [12]: inconclusive: 37.2 µM [rising, partial curve, poor fit]
Potency [13]: active: 18.7 µM
Potency [16]: inconclusive: 13.2 µM [cytotoxic, partial curve]
Potency [17]: inconclusive: 0.0066 µM [cytotoxic, full curve, poor fit]
Potency (CRL-7250): inconclusive: 37.2 µM [inhibitor, single point]

O=c1[nH]nc(Sc2ncc([N+](=O)[O-])s2)n1-c1ccc2c(c1)OCCO2
viability (percent of control) [2]: inconclusive: 77.2%
Potency [4]: inconclusive: 29.6 µM [cytotoxic, single point]
Potency [8]: active: 9.35 µM
Potency [15]: active: 10.5 µM
Potency [11]: active: 2.09 µM
Potency [12]: inconclusive: 5.26 µM [cytotoxic, full curve, poor fit]
Potency [13]: active: 1.48 µM
Potency [16]: active: 6.62 µM
Potency (CRL-7250): inconclusive: 37.2 µM [inhibitor, single point]
Potency (HEK293): active: 9.35 µM

CC[C@@H](C(=O)O)C1CC[C@H](C)C([C@@H](C)[C@H](O)[C@H](C)C(=O)[C@H](CC)C2O[C@]3(C=C[C@@H](O)[C@]4(CC[C@@](C)(C5CC[C@](O)(CC)[C@H](C)O5)O4)O3)[C@H](C)C[C@@H]2C)O1 (some centres not stated)
caspase activation [18]: inconclusive: 161% [activator]
Potency [2]: active: 0.0332 µM
Potency [3]: active: 14.8 µM
Potency [4]: active: 1.87 µM
IC50 (viability decrease) [5]: active: 0.0743 µM
Potency [14]: active: 7.43 µM

Cn1c(Nc2ccc(C(F)(F)F)cc2)nc2cc(Oc3ccnc(-c4ncc(C(F)(F)F)[nH]4)c3)ccc21
Potency [1]: active: 16.6 µM
Potency [18]: inactive
Potency [2]: inconclusive: 5.26 µM [cytotoxic, partial curve]
Potency [3]: inconclusive: 20.9 µM [cytotoxic, partial curve, poor fit]
Potency [4]: inconclusive: 0.187 µM [cytotoxic, full curve]
IC50 (viability decrease) [5]: inconclusive: 11.8 µM [cytotoxic, partial curve]
Potency [6]: active: 20.9 µM and inconclusive: 18.4 µM [inhibitor, single point]
Potency [7]: active: 8.63 µM
Potency [8]: inconclusive: 23.5 µM [cytotoxic, single point]
Potency [9]: inconclusive: 14.8 µM [cytotoxic, partial curve]
Potency [10]: active: 9.35 µM
Potency [11]: active: 11.8 µM
Potency [12]: active: 5.9 µM
Potency [13]: active: 6.62 µM
Potency [16]: inconclusive: 18.7 µM [cytotoxic, partial curve]
Potency [17]: active: 16.6 µM
Potency (CRL-7250): active: 0.372 µM
Potency (HEK293): active: 26.4 µM
